Test results as given in patent US20210038503A1, “COMPOSITIONS AND METHODS FOR TOPICAL TREATMENT OF DERMAL AND OCULAR CONDITIONS” (GABADERM, INC., priority 2018, published 2021).
For at least one compound, name, drawing or mass did not settle the structure.

Tested on: oxalobenzone treated ear
Assay: Oxalobenzone induced mouse ear inflammatory model (ear thickness)
Assay type: in vivo
Conditions: control dexamethasone, FIG. 6
Method: Animals were sensitized to oxalbenzone on the abdomen on day 2 with 150 μl 3% oxalbenzone. Animals were challenged on day 5 with 1% oxalobenzone to both sides of one ear. This served as an in vivo pharmacological disease models for psoriasis and atopic dermatitis.
Ear thickness was measured with calipers at 24 hours and 48 hours and compared to contralateral non-challenged ear. Ear thickness served as an indication of swelling due to inflammation. The greater the ear thickness, the greater the inflammation.

SMILES: C[C@@H]1C[C@H]2[C@@H]3CCC4=CC(=O)C=C[C@]4(C)[C@@]3(F)[C@@H](O)C[C@]2(C)[C@@]1(O)C(=O)CO [dexamethasone]
- Inflammation (ear thickness): reduces inflammation
